Test results published in the supplement of paper PMC10849652.
Some of the results follow.

Chains of the proteins cited; added tags and fusions are not shown. Lines headed by an entry give the natural chain unless they say otherwise; changes in a name come on top.
UniProt O43299: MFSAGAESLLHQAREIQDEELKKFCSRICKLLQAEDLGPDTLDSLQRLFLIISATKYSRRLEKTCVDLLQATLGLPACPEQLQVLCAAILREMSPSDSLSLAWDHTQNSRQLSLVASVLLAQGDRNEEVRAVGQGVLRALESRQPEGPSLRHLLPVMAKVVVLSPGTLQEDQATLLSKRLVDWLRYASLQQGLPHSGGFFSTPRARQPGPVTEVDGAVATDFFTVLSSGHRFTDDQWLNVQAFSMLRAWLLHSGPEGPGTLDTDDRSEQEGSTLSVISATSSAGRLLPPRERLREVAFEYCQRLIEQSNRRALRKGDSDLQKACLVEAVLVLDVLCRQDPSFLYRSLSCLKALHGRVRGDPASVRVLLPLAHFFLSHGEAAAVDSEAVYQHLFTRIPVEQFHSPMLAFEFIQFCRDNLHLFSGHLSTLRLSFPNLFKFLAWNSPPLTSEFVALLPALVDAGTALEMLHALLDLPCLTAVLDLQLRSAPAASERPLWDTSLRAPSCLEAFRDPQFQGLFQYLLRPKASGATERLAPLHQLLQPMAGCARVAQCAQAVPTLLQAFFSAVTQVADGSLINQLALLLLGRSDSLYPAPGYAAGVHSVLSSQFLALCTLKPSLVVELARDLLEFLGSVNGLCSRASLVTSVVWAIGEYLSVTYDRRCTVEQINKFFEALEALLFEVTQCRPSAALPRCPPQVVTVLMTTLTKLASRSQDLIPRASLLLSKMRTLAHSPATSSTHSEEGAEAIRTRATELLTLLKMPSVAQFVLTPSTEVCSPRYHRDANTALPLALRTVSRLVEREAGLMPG
UniProt Q8IUR7, whole entry, looked up: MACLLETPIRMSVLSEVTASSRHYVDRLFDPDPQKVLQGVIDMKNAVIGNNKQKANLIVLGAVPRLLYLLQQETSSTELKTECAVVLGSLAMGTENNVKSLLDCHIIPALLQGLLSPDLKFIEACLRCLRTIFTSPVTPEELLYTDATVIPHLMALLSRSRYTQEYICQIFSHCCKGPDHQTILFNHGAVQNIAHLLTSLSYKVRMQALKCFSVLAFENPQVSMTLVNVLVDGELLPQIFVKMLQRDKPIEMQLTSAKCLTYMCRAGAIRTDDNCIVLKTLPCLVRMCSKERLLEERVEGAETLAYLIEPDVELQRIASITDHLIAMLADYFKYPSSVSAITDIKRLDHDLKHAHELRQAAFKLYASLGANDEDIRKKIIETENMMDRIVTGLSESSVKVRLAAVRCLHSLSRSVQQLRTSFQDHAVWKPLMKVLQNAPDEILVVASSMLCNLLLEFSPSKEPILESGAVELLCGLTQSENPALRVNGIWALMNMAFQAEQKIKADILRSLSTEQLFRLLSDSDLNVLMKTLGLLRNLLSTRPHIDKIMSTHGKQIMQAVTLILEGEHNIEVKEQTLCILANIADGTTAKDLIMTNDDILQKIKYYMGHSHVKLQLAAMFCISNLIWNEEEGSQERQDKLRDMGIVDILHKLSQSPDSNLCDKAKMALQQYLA
UniProt P52566: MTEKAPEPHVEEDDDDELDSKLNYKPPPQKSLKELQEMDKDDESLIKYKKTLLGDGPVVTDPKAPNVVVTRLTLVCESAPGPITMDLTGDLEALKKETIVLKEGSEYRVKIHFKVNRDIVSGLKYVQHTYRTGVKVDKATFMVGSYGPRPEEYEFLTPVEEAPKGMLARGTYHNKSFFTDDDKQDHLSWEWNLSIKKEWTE
UniProt P49407: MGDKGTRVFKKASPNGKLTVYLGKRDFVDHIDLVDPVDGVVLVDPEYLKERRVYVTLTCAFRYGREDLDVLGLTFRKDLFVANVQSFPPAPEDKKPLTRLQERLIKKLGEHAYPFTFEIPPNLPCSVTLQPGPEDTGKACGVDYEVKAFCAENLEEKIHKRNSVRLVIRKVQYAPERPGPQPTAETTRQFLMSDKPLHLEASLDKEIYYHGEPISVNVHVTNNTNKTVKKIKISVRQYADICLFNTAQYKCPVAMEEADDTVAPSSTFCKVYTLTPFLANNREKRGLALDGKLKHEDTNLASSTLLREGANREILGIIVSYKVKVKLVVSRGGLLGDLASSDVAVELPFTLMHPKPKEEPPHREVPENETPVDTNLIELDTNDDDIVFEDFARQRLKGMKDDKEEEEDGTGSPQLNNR
UniProt Q14155: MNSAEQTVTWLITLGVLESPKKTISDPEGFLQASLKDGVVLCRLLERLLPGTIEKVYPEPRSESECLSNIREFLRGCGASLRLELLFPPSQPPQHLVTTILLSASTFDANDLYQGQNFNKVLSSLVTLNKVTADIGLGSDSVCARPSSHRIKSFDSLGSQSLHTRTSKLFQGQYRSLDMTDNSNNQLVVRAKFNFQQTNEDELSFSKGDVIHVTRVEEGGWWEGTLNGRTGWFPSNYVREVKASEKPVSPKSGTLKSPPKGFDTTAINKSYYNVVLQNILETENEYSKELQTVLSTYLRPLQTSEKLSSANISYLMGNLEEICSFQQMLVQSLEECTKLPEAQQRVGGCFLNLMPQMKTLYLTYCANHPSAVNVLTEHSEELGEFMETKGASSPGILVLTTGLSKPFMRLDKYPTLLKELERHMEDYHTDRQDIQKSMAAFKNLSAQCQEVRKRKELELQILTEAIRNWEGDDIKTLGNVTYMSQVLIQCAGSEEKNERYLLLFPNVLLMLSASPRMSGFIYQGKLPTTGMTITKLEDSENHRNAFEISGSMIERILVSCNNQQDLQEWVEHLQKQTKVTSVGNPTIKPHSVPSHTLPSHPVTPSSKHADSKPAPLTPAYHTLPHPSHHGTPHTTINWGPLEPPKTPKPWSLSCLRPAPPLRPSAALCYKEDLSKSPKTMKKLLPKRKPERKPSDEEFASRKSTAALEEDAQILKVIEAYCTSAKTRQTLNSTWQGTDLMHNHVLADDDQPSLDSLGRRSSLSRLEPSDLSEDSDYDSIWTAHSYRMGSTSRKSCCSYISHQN
UniProt P07741: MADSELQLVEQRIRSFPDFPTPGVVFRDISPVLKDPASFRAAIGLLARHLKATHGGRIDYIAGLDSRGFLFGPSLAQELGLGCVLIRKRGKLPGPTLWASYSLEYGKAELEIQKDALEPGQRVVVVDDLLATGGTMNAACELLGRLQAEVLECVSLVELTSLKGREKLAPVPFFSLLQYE
UniProt Q96BM9: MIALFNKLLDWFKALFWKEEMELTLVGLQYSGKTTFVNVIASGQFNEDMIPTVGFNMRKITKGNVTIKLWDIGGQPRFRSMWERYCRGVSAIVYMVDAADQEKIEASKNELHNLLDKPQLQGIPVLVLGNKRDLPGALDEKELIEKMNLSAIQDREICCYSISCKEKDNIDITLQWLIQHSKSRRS
UniProt P02654: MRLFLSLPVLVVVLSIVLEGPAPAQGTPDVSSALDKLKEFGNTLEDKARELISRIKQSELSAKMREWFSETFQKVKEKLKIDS
UniProt Q8N6T3: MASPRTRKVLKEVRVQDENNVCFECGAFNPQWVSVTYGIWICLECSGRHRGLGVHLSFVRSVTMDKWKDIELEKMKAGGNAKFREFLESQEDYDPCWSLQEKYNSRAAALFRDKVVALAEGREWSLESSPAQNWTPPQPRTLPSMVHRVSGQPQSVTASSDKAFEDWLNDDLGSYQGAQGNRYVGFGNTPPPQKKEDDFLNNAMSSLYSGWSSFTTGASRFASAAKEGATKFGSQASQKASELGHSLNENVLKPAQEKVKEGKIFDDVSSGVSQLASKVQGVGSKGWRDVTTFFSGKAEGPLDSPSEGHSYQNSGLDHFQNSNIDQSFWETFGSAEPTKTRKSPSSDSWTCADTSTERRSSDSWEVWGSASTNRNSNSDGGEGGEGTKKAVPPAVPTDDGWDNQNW
UniProt P40616: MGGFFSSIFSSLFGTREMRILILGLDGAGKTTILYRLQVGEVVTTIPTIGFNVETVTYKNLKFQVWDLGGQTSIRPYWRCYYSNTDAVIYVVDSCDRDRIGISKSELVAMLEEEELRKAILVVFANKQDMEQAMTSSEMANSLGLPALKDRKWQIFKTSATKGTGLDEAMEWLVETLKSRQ
UniProt Q96P48: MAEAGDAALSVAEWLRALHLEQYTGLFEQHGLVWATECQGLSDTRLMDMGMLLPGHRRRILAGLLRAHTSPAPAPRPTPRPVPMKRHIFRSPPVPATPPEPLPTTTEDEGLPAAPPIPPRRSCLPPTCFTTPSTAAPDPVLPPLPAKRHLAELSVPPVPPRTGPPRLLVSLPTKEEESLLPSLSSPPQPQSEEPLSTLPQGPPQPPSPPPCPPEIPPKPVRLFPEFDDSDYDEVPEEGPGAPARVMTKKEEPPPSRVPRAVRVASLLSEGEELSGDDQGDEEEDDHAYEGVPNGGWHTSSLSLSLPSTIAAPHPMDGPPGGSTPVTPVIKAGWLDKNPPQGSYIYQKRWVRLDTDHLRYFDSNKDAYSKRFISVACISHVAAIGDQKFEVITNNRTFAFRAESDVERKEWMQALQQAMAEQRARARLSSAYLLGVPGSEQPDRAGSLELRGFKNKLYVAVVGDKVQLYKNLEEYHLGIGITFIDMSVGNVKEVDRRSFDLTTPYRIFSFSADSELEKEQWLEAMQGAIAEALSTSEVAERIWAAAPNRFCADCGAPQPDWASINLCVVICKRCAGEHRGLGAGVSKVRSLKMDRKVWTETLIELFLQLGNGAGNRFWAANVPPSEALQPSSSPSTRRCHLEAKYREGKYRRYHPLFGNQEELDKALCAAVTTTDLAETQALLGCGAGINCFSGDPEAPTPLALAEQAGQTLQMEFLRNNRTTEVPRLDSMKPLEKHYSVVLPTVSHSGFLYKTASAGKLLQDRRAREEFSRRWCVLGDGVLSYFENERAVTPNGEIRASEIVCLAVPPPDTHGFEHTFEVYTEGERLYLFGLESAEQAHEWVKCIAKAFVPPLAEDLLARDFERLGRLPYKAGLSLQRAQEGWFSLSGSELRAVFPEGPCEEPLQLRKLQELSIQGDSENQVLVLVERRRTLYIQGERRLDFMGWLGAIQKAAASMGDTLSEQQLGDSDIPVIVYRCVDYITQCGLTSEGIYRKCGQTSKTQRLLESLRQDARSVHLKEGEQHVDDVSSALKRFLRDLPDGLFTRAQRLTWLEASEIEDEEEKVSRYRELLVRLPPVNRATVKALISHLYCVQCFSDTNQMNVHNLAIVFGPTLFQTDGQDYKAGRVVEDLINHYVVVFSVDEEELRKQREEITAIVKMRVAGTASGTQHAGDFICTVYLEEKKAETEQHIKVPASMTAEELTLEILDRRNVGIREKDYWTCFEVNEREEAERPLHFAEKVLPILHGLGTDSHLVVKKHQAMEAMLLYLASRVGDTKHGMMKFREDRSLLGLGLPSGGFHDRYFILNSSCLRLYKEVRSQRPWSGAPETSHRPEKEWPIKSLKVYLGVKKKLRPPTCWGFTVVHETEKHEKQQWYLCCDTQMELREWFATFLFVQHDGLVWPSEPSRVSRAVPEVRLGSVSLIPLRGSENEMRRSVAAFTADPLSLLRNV
UniProt Q92619: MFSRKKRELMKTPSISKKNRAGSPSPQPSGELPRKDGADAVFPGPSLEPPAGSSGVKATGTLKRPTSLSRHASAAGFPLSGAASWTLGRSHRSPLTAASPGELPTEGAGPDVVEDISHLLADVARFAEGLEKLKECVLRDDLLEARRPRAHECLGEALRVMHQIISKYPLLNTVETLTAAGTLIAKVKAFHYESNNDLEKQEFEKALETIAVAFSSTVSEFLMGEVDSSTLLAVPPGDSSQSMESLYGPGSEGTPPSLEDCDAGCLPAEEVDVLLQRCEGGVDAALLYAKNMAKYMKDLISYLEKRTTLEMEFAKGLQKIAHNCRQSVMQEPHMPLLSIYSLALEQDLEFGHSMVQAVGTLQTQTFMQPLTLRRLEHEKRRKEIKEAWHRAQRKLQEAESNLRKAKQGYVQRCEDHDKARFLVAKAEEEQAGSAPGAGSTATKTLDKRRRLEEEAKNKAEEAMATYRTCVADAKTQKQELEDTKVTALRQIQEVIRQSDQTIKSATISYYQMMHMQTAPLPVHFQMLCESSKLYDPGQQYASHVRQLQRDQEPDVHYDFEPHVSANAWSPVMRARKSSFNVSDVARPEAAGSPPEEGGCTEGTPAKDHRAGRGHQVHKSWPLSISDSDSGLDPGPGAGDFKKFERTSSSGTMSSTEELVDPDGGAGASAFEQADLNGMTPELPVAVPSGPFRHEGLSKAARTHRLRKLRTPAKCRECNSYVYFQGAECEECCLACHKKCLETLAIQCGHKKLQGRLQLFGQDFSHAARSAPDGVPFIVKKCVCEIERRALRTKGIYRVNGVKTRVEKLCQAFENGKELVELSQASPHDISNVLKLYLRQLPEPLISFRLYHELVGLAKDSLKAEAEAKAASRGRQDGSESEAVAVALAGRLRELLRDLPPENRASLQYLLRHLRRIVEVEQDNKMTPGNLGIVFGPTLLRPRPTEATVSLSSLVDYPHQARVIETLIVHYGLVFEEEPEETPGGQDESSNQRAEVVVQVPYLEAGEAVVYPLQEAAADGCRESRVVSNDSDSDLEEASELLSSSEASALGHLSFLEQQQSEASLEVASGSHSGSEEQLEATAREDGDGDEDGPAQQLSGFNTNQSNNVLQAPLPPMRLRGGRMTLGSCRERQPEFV

How the values were obtained:
Assay in all cases: log2 fold change, soluble protein after heating vs DMSO (PISA); higher = thermal stabilisation; K562 lysate, 10 uM; active = over 0.2 and 3.5 SD of the protein, either way, in both replicates (recomputed)
[1] = compound: C=CC(=O)N1CCC[C@@H](n2nc(-c3ccc(Oc4ccccc4)cc3)c3c(N)ncnc32)C1 [ibrutinib]
How it was run: (§1)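 Following dounce homogenisation of K562 pellets in PBS pH 7.4 with 1 mM MgCl2, crude extract at 1 mg/mL protein was incubated for 30 min with 10 μM compound. Aliquots were then heated for 3 min over 48°C-58°C and pooled, NP-40 was added to 0.5% at 4°C, and soluble protein was recovered as the supernatant at 21,000xg for 90 min. Channel-sum-equalised TMTpro 16plex LC-MS/MS quantified this protein. Each value, from duplicates, is a log-two fold change in thermal stability relative to solvent controls.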

[2] = compound: CC(=O)c1cnc2ccc(-c3cc(Cl)c(O)c(Cl)c3)nc2c1N[C@H]1CC[C@H](CN(C)C)CC1
How it was run: as §1

[3] = compound: CC(C)(C)Cn1c(N)nc2ccc(-c3[nH]c(C(C)(C)C)nc3-c3ccc(F)cc3)nc21 [ralimetinib]
How it was run: as §1

[4] = compound: CC(C)(O)CC(=O)NCCn1ccc2ncnc(Nc3ccc(Oc4cccc(C(F)(F)F)c4)c(Cl)c3)c21
How it was run: as §1

[5] = compound: CC(C)C1=C2N=C(C=C(N2N=C1)NCC3=CC=CC=C3)NCCCCCCN
How it was run: as §1

[6] = compound: CC1=C(C(CC(=O)N1)C2=CC=C(C=C2)C(F)(F)F)C(=O)NC3=C(C=C4C(=C3)C=NN4)F
How it was run: as §1

[7] = compound: CC1=C(C2=C(C=C1)C(=O)C3=CC=CC=C3N2CCCN)C
How it was run: as §1

[8] = compound: CC1=C(C=C(C=C1)NC(=O)C2=CC(=CC=C2)C(C)(C)C#N)NC3=CC4=C(C=C3)N=CN(C4=O)C
How it was run: as §1

[9] = compound: CC1=C(C=C(C=C1)NC(=O)C2=CC(=CC=C2)N(C)C)NC(=O)C3=CC=C(C=C3)O
How it was run: as §1

[10] = compound: CC1=CC=C(C=C1)SC2=C3C=C(SC3=CN=C2)C(=O)N
How it was run: as §1

[11] = compound: CCCS(=O)(=O)Nc1ccc(F)c(C(=O)c2c[nH]c3ncc(-c4ccc(Cl)cc4)cc23)c1F [vemurafenib]
How it was run: as §1

[12] = compound: CCCS(=O)(=O)Nc1ccc(F)c(C(=O)c2c[nH]c3ncc(Cl)cc23)c1F
How it was run: as §1

[13] = compound: CCN(CCCOc1ccc2c(Nc3cc(CC(=O)Nc4cccc(F)c4)[nH]n3)ncnc2c1)CCOP(=O)(O)O [barasertib]
How it was run: as §1

[14] = compound: CC[C@@H]1C(=O)N(C)c2cnc(Nc3ccc(C(=O)NC4CCN(C)CC4)cc3OC)nc2N1C1CCCC1
How it was run: as §1

[15] = compound: CC[C@@H]1C(=O)N(C)c2cnc(Nc3ccc(C(=O)N[C@H]4CC[C@H](N5CCN(CC6CC6)CC5)CC4)cc3OC)nc2N1C(C)C [volasertib]
How it was run: as §1

[16] = compound: CCn1c(C(=O)N(C2CC2)C2CC2)cc2c3c(ncn3C)c(Nc3cc(C)n(C)n3)nc21
How it was run: as §1

[17] = compound: CCn1cc(-c2ccnc3[nH]c(-c4cccc(CN(C)C)c4)cc23)c(-c2ccc(NC(=O)N(C)C)cc2)n1
How it was run: as §1

[18] = compound: CN1CCC(CNc2ccc3ncc(-c4cccc(OC(F)(F)F)c4)n3n2)CC1
How it was run: as §1

[19] = compound: CN1CCN(CCOc2cc(OC3CCOCC3)c3c(Nc4c(Cl)ccc5c4OCO5)ncnc3c2)CC1 [saracatinib]
How it was run: as §1

[20] = compound: CN1CCN(c2nc(C3=C(c4c[nH]c5ccccc45)C(=O)NC3=O)c3ccccc3n2)CC1 [sotrastaurin]
How it was run: as §1

Measured: log2 fold change

AP5Z1 (UniProt O43299)
inactive: [1] 0.016 | [2] -0.151 | [3] -0.009 | [4] -0.047 | [5] -0.028 | [6] -0.023 | [7] -0.143 | [8] 0.162 | [9] 0.028 | [10] -0.133 | [11] 0.155 | [12] 0.054 | [13] 0.031 | [14] 0.096 | [15] 0.056 | [16] 0.021 | [17] -0.161 | [18] 0.068 | [19] 0.008 | [20] -0.002

ARPIN isoform 2 (UniProt Q7Z6K5)
inactive: [1] 0.014 | [2] 0.028 | [3] -0.06 | [4] -0.022 | [5] 0.05 | [6] 0.06 | [7] -0.106 | [8] 0.048 | [9] -0.045 | [10] 0.013 | [11] 0.08 | [12] 0.04 | [13] 0.165 | [14] 0.1 | [15] -0.042 | [16] -0.006 | [17] -0.011 | [18] 0.066 | [19] 0.104 | [20] 0.039

ARMC8 (UniProt Q8IUR7)
inactive: [1] -0.021 | [2] -0.028 | [3] 0.006 | [4] -0.022 | [5] -0.031 | [6] 0.017 | [7] -0.024 | [8] -0.002 | [9] 0.012 | [10] -0.003 | [11] 0.012 | [12] 0.008 | [13] 0.013 | [14] -0.021 | [15] 0.02 | [16] -0.008 | [17] -0.073 | [18] 0.063 | [19] -0.003 | [20] 0.01

ARPC2 (UniProt O15144)
inactive: [1] -0.021 | [2] -0.009 | [3] 0.032 | [4] -0.003 | [5] -0.001 | [6] -0.009 | [7] 0.019 | [8] -0.006 | [9] -0.008 | [10] -0.015 | [11] -0.002 | [12] -0.007 | [13] -0.008 | [14] -0.015 | [15] 0.032 | [16] 0.007 | [17] -0.043 | [18] 0.034 | [19] 0.006 | [20] 0.016

ARHGDIB (UniProt P52566)
inactive: [1] -0.023 | [2] -0.025 | [3] -0.023 | [4] -0.031 | [5] -0.013 | [6] -0.048 | [7] 0.025 | [8] 0.011 | [9] 0 | [10] -0.017 | [11] -0.015 | [12] -0.027 | [13] -0.028 | [14] -0.017 | [15] 0.022 | [16] -0.001 | [17] 0.065 | [18] 0 | [19] -0.024 | [20] 0.003

ARSA (UniProt P15289)
inactive: [1] -0.112 | [2] 0.05 | [3] 0.094 | [4] 0 | [5] 0.035 | [6] 0.008 | [7] 0.007 | [8] 0.017 | [9] -0.103 | [10] -0.026 | [11] 0.034 | [12] 0.009 | [13] 0.149 | [14] 0.025 | [15] 0.021 | [16] 0.021 | [17] 0.17 | [18] 0.027 | [19] -0.018 | [20] 0.025

ARRB1 (UniProt P49407)
inactive: [1] 0.05 | [2] -0.001 | [3] -0.036 | [4] -0.015 | [5] -0.016 | [6] -0.018 | [7] -0.025 | [8] 0.003 | [9] 0.01 | [10] 0.016 | [11] 0.042 | [12] 0 | [13] -0.02 | [14] 0 | [15] 0.002 | [16] -0.015 | [17] -0.06 | [18] 0.04 | [19] -0.005 | [20] 0.001

Quoted at random: 2 records from the list, in no set order.
ARPIN isoform 2 (UniProt Q7Z6K5)
inactive: [1] 0.014 | [2] 0.028 | [3] -0.06 | [4] -0.022 | [5] 0.05 | [6] 0.06 | [7] -0.106 | [8] 0.048 | [9] -0.045 | [10] 0.013 | [11] 0.08 | [12] 0.04 | [13] 0.165 | [14] 0.1 | [15] -0.042 | [16] -0.006 | [17] -0.011 | [18] 0.066 | [19] 0.104 | [20] 0.039

ARSA (UniProt P15289)
inactive: [1] -0.112 | [2] 0.05 | [3] 0.094 | [4] 0 | [5] 0.035 | [6] 0.008 | [7] 0.007 | [8] 0.017 | [9] -0.103 | [10] -0.026 | [11] 0.034 | [12] 0.009 | [13] 0.149 | [14] 0.025 | [15] 0.021 | [16] 0.021 | [17] 0.17 | [18] 0.027 | [19] -0.018 | [20] 0.025

(further entries)

ARHGEF7 isoform 5 (UniProt Q14155)
inactive: [1] -0.031 | [2] 0.079 | [3] -0.011 | [4] 0.022 | [5] 0.032 | [6] 0.006 | [7] 0.121 | [8] -0.03 | [9] -0.014 | [10] -0.004 | [11] 0.013 | [12] 0.06 | [13] 0.052 | [14] 0.057 | [15] -0.052 | [16] -0.016 | [17] 0.008 | [18] -0.06 | [19] 0.027 | [20] 0.021

APRT (UniProt P07741)
inactive: [1] -0.006 | [2] -0.01 | [3] -0.01 | [4] -0.048 | [5] 0.004 | [6] -0.052 | [7] 0.002 | [8] 0.032 | [9] -0.024 | [10] 0.029 | [11] 0.037 | [12] 0 | [13] 0.077 | [14] -0.029 | [15] -0.089 | [16] 0.006 | [17] -0.029 | [18] 0.005 | [19] -0.022 | [20] 0.021

ARL8A (UniProt Q96BM9)
inactive: [1] -0.141 | [2] 0.119 | [3] -0.101 | [4] -0.102 | [5] 0.11 | [6] 0.135 | [7] -0.049 | [8] -0.143 | [9] -0.022 | [10] 0 | [11] -0.029 | [12] -0.26 | [13] -0.026 | [14] -0.001 | [15] -0.037 | [16] -0.03 | [18] -0.199 | [19] 0.03 | [20] 0.022
active: [17] 0.558

APOC1 (UniProt P02654)
inactive: [1] 0.015 | [2] -0.143 | [3] 0.012 | [4] -0.022 | [5] 0.131 | [6] 0.148 | [7] -0.018 | [8] 0.016 | [9] -0.03 | [10] -0.017 | [11] 0.274 | [12] -0.039 | [13] -0.132 | [14] -0.042 | [15] 0.081 | [16] -0.009 | [17] 0.21 | [18] -0.332 | [19] 0.094 | [20] -0.035

ARFGAP1 (UniProt Q8N6T3)
inactive: [1] -0.118 | [2] 0.06 | [3] -0.018 | [4] -0.203 | [5] 0.019 | [6] 0.408 | [7] 0.136 | [8] -0.062 | [9] 0.061 | [10] -0.045 | [11] 0.063 | [12] -0.01 | [13] 0.225 | [14] 0.204 | [15] -0.02 | [16] 0.171 | [17] 0.001 | [18] 0.029 | [19] 0.056 | [20] -0.07

ARL1 (UniProt P40616)
inactive: [1] -0.029 | [2] -0.005 | [3] 0.027 | [4] -0.001 | [5] -0.017 | [6] 0.098 | [7] -0.026 | [8] 0.134 | [9] -0.021 | [10] -0.027 | [11] 0.046 | [12] 0.007 | [13] -0.031 | [14] 0.03 | [15] -0.066 | [16] -0.04 | [17] -0.101 | [18] -0.005 | [19] -0.005 | [20] 0.042

APAF1 (UniProt O14727)
inactive: [1] 0.027 | [2] 0.063 | [3] 0.031 | [4] -0.04 | [5] 0.009 | [6] 0.008 | [7] -0.005 | [8] 0.003 | [9] 0.002 | [10] 0.022 | [11] -0.014 | [12] -0.012 | [13] 0.073 | [14] -0.087 | [15] -0.056 | [16] 0.001 | [17] 0.115 | [18] -0.012 | [19] -0.028 | [20] 0.015

ARAP1 (UniProt Q96P48)
inactive: [1] -0.01 | [2] 0.002 | [3] 0.016 | [4] 0.028 | [5] 0.003 | [6] 0.02 | [7] -0.01 | [8] 0.005 | [9] 0.057 | [10] 0.006 | [11] -0.014 | [12] 0.006 | [13] 0.013 | [14] -0.034 | [15] -0.085 | [16] 0.029 | [17] -0.076 | [18] 0.015 | [19] -0.001 | [20] 0.006

ARHGAP45 isoform 2 (UniProt Q92619)
inactive: [1] 0.08 | [2] -0.009 | [3] 0.016 | [4] -0.039 | [5] -0.018 | [6] 0.067 | [7] -0.039 | [8] -0.008 | [9] 0.007 | [10] 0.014 | [11] 0.017 | [12] -0.005 | [13] -0.087 | [14] 0.023 | [15] -0.047 | [16] -0.004 | [17] 0.012 | [18] 0.004 | [19] -0.032 | [20] -0.025
